Reference: PubChem BioAssay AID743121 (NCATS, 2013)
The whole screen tested about 26,000 reagents; this is an unselected part. 167 of all reagents (0.63%) were called active. 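Calls are per gene from RSA p-values that are not deposited; an individual active-marked siRNA can sensitise only weakly.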 Entries without a mark were called inactive. The numbers tell different reagents against one gene apart.

- Assay: 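Knock-downs that sensitise breast cancer cells to camptothecin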 (primary screen)
- System: MDA-MB-231 cells, a human breast cancer line
- Reagent: single siRNA against human genes, 20 nM siRNA (0.8 pmol per well)
- Duration: 120 h (drug added 48 h after transfection, read 72 h later)
- Treatment: camptothecin 20 nM (about EC30) for 72 h; vehicle 0.1% DMSO in parallel plates
- Measured: 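Cell viability by ATP luminescence (CellTiter-Glo) as % of non-targeting siRNA wells, and the log2 ratio of viability without drug over viability with camptothecin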
- Reading the numbers: log2 vehicle/camptothecin viability: higher = stronger sensitisation to camptothecin; viability with camptothecin and viability without drug: higher = more viable cells
- Call rule: 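Active genes have an RSA gene-level p-value below 0.001, computed from the ratios of their separate siRNAs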

Gene,reagent no.,log2 vehicle/camptothecin viability,viability with camptothecin (% of control),viability without drug (% of control)
TNFRSF21 (TNF receptor superfamily member 21),1,-0.457,108,78.9
TNFRSF21 (TNF receptor superfamily member 21),2,-0.647,78.1,49.9
TNFRSF21 (TNF receptor superfamily member 21),3,-0.328,95.5,76.1
"NUPR1 (nuclear protein 1, transcriptional regulator)",1,1.18,18,40.9
"NUPR1 (nuclear protein 1, transcriptional regulator)",2,-0.132,97.5,89
"NUPR1 (nuclear protein 1, transcriptional regulator)",3,-0.0223,58.6,57.7
"NUPR1 (nuclear protein 1, transcriptional regulator)",4,0.0799,33.9,35.9
MED7 (mediator complex subunit 7),1,0.209,75.4,87.1
MED7 (mediator complex subunit 7),2,-0.392,88.9,67.7
MED7 (mediator complex subunit 7),3,-0.188,21.4,18.7
MED7 (mediator complex subunit 7),4,-0.0367,85.6,83.4
NID1 (nidogen 1),1,-0.151,100,90.4
NID1 (nidogen 1),2,-0.246,86.8,73.2
NID1 (nidogen 1),3,-0.162,68.3,61
NID1 (nidogen 1),4,0.0576,63.5,66.1
KCNV2,1,-0.539,34.1,23.5
KCNV2,2,-1.96,100,25.9
KCNV2,3,-0.877,47.7,26
TIMP4 (TIMP metallopeptidase inhibitor 4),1,0.0822,75.8,80.2
TIMP4 (TIMP metallopeptidase inhibitor 4),2,0.0804,84.7,89.6
TIMP4 (TIMP metallopeptidase inhibitor 4),3,0.188,67.4,76.8
TIMP4 (TIMP metallopeptidase inhibitor 4),4,-0.22,94.5,81.1
"CPXM1 (carboxypeptidase X, M14 family member 1)",1,-0.433,39.1,28.9
"CPXM1 (carboxypeptidase X, M14 family member 1)",2,-0.455,83.3,60.8
"CPXM1 (carboxypeptidase X, M14 family member 1)",3,-0.0438,51,49.4
"CPXM1 (carboxypeptidase X, M14 family member 1)",4,0.186,33.2,37.7
ZRANB2 (zinc finger RANBP2-type containing 2),1,-0.605,8.76,5.76
ZRANB2 (zinc finger RANBP2-type containing 2),2,-0.0275,93.7,91.9
ZRANB2 (zinc finger RANBP2-type containing 2),3,-0.39,89.9,68.6
ZRANB2 (zinc finger RANBP2-type containing 2),4,-0.199,93,81
ANGPTL4 (angiopoietin like 4),1,-0.45,29.2,21.4
ANGPTL4 (angiopoietin like 4),2,0.0872,50.2,53.3
ANGPTL4 (angiopoietin like 4),3,-0.363,77.3,60.1
ANGPTL4 (angiopoietin like 4),4,-0.141,77.1,69.9
SRPRA (SRP receptor subunit alpha),1,-0.351,49.4,38.7
SRPRA (SRP receptor subunit alpha),2,-0.621,94.1,61.2
SRPRA (SRP receptor subunit alpha),3,-0.553,78,53.1
DEFB4A (defensin beta 4A),1,-0.515,55.9,39.1
DEFB4A (defensin beta 4A),2,0.316,65.4,81.4
DEFB4A (defensin beta 4A),3,-0.00869,74.2,73.8
DEFB4A (defensin beta 4A),4,-0.137,63.9,58.1
PELO (pelota mRNA surveillance and ribosome rescue factor),1,-0.399,98.8,74.9
PELO (pelota mRNA surveillance and ribosome rescue factor),2,0.0249,75.7,77
PELO (pelota mRNA surveillance and ribosome rescue factor),3,-0.293,116,94.8
PELO (pelota mRNA surveillance and ribosome rescue factor),4,-0.294,57.7,47.1
NME4 (NME/NM23 nucleoside diphosphate kinase 4),1,0.0474,92.4,95.4
NME4 (NME/NM23 nucleoside diphosphate kinase 4),2,0.659,42.6,67.3
NME4 (NME/NM23 nucleoside diphosphate kinase 4),3,-0.576,106,71.3
NME4 (NME/NM23 nucleoside diphosphate kinase 4),4,0.829,57.2,102
RARG (retinoic acid receptor gamma),1,-0.172,67,59.4
RARG (retinoic acid receptor gamma),2,-0.285,100,82.2
RARG (retinoic acid receptor gamma),3,0.0586,27.6,28.8
RARG (retinoic acid receptor gamma),4,0.0328,60.4,61.7
RARG (retinoic acid receptor gamma),5,0.00199,25.3,25.3
RARG (retinoic acid receptor gamma),6,-0.291,56.6,46.2
RARG (retinoic acid receptor gamma),7,-0.186,76.4,67.2
RARG (retinoic acid receptor gamma),8,-0.0422,88.5,85.9
UPF1 (UPF1 RNA helicase and ATPase),1,0.575 (active),46,68.5
UPF1 (UPF1 RNA helicase and ATPase),2,0.16 (active),55.4,61.9
UPF1 (UPF1 RNA helicase and ATPase),3,0.558 (active),48.4,71.2
UPF1 (UPF1 RNA helicase and ATPase),4,1.09 (active),27,57.6
PPP2R3B (protein phosphatase 2 regulatory subunit B''beta),1,-0.502,47.9,33.8
PPP2R3B (protein phosphatase 2 regulatory subunit B''beta),2,-0.283,55.2,45.4
PPP2R3B (protein phosphatase 2 regulatory subunit B''beta),3,-0.016,98.4,97.3
PPP2R3B (protein phosphatase 2 regulatory subunit B''beta),4,-0.848,54.5,30.3
PDE5A (phosphodiesterase 5A),1,-0.664,71.4,45
PDE5A (phosphodiesterase 5A),2,-0.015,92.1,91.1
PDE5A (phosphodiesterase 5A),3,0.0912,26.8,28.6
PDE5A (phosphodiesterase 5A),4,-0.0406,99.6,96.8
IL15RA (interleukin 15 receptor subunit alpha),1,0.117,100,109
IL15RA (interleukin 15 receptor subunit alpha),2,-0.0749,86.5,82.1
IL15RA (interleukin 15 receptor subunit alpha),3,-0.212,105,90.7
PCSK1 (proprotein convertase subtilisin/kexin type 1),1,0.0891,98.4,105
PCSK1 (proprotein convertase subtilisin/kexin type 1),2,-0.0803,82.6,78.2
PCSK1 (proprotein convertase subtilisin/kexin type 1),3,-0.106,49,45.5
PCSK1 (proprotein convertase subtilisin/kexin type 1),4,-0.399,90.8,68.9
PSMA1 (proteasome 20S subunit alpha 1),1,-0.178,14.4,12.7
PSMA1 (proteasome 20S subunit alpha 1),2,0.696,4.06,6.58
PSMA1 (proteasome 20S subunit alpha 1),3,-0.0973,13,12.2
PSMA1 (proteasome 20S subunit alpha 1),4,0.287,10,12.2
PRSS36 (serine protease 36),1,-0.696,55.9,34.5
PRSS36 (serine protease 36),2,0.26,49.2,58.9
PRSS36 (serine protease 36),3,-0.374,49.3,38
PRSS36 (serine protease 36),4,-0.429,14.5,10.8
OR3A2 (olfactory receptor family 3 subfamily A member 2),1,0.103,37.4,40.2
OR3A2 (olfactory receptor family 3 subfamily A member 2),2,-0.323,72.3,57.8
OR3A2 (olfactory receptor family 3 subfamily A member 2),3,-0.216,75.9,65.3
OR3A2 (olfactory receptor family 3 subfamily A member 2),4,0.309,39.7,49.2
OR3A2 (olfactory receptor family 3 subfamily A member 2),5,-0.127,73.8,67.6

Just “viability without drug (% of control)”, for 15 of the entries above:
PPP2R3B (protein phosphatase 2 regulatory subunit B''beta) #3: 97.3
PPP2R3B (protein phosphatase 2 regulatory subunit B''beta) #4: 30.3
PDE5A (phosphodiesterase 5A) #1: 45
PDE5A (phosphodiesterase 5A) #2: 91.1
PDE5A (phosphodiesterase 5A) #3: 28.6
PDE5A (phosphodiesterase 5A) #4: 96.8
IL15RA (interleukin 15 receptor subunit alpha) #1: 109
IL15RA (interleukin 15 receptor subunit alpha) #2: 82.1
IL15RA (interleukin 15 receptor subunit alpha) #3: 90.7
PCSK1 (proprotein convertase subtilisin/kexin type 1) #1: 105
PCSK1 (proprotein convertase subtilisin/kexin type 1) #2: 78.2
PCSK1 (proprotein convertase subtilisin/kexin type 1) #3: 45.5
PCSK1 (proprotein convertase subtilisin/kexin type 1) #4: 68.9
PSMA1 (proteasome 20S subunit alpha 1) #1: 12.7
PSMA1 (proteasome 20S subunit alpha 1) #2: 6.58
